In US20260193331A1 one finds binding data, which are given here for one molecule.

Sequences of proteins named here, by UniProt entry; tags and fusion partners are left off. A change or cut given only in a name is not applied to a line headed by its entry.
UniProt O95994: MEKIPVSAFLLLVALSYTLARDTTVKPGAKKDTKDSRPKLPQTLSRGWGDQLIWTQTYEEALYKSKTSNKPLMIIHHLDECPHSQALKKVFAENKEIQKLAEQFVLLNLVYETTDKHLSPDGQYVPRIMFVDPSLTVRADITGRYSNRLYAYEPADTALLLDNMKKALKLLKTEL

In this assay the target is human AGR2 WT expressed on the yeast surface with a C-terminal HA tag (human) (UniProt O95994). Kind of assay: flow cytometry on yeast displaying human AGR2, 500 pM antibody. (In flow cytometry, cells or beads pass a laser one at a time.)

Results are given in words; binding and its absence hold for the method and conditions named. Some binding calls cover weakened binding; strength is not graded here.

B1: TH-106 humanized monoclonal antibody (antibody, V domains shown)
VH: QVQLVQSGAEVKKPGASVKVSCKTSGYVFSRSWMNWVRQAPGQGLEWIGWIYPGDGDTNYNGKFKDRVTLTADKSTSTVYMELSSLRSEDTAVYFCARGGYDGSPWLSYWGQGTLVTVSS
VL: EIVLTQSPATLSLSPGERATLSCKASQDINSYLSWFQQKPGQAPRTLIYRANRLVDGIPARFSGSGSGQDFTLTISSLEPEDFAVYYCLQYDEFPFTFGGGTKVEIK
As to B1, the binding entry is listed as “binds”.
